In this experiment the test system is MCF-7. The experiment can be described thus: Sensitivity of cell lines to Cisplatin and Ti compounds (MCF-7). It counts as cell-based.

The structures appear in SMILES notation. pIC50: −log10 of the molar value.

A word on the pIC50: it is the negative decadic logarithm of the IC50, by convention in mol/L. A low value points to a large IC50. `N.N.[Cl][Pt][Cl]` [Cisplatin, cisplatin, reference compound] showed a pIC50 of 5.05.

Source of the values: patent US20060106005A1, “Funtionalised metallocenes as anticancer drugs” (priority 2003, published 2006).
